Data source: PubChem BioAssay AID504786 (Drosophila RNAi Screening Center, 2011)
Purpose: 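Positive regulators of HIF-driven reporter output in Drosophila cells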 (primary screen). Cells: Drosophila S2 cells with a stable HIF luciferase reporter. Knock-down reagent: long dsRNA against Drosophila genes, about 0.2 µg dsRNA per well of a 384-well plate. Duration: three days of knock-down, then 20 h of DFO before reading. Conditions: desferrioxamine (DFO) at 100 µM, an iron chelator that mimics hypoxia, for 20 h. Read-out: 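HIF reporter luminescence in cells given 100 µM DFO for 20 h, using the mouse ldh-a hypoxia-response element, scored as per-plate z-scores; higher means greater loss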. Reading the numbers: z-score: higher = stronger loss of HIF reporter signal.
The screen tested about 21,000 reagents; below is a random part of those with a known target gene and a result. 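Primary screen; positive scores mean lost reporter signal, so the sign may be inverted from the usual convention.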 Names joined by + are all predicted targets of the reagent. No sequences are given here.

target	dsRNA	z-score, replicate 1	z-score, replicate 2	z-score, replicate 3	z-score, replicate 4
asp	DRSC16903	-0.2	-0.2		
CG42450	DRSC20022	-0.3	-0.5		
fws	DRSC02969	-0.2	-0.5		
Cog7	DRSC16331	-0.3	-0.1		
Cp16	DRSC11119	-0.1	-0.4		
Polr2H	DRSC11642	2.7	2.4		
Nlg1	DRSC12485	-0.3	0.3		
Nlg1	DRSC12532	-0.1	0.7		
Nlg1	DRSC12533	-0.3	-0.8		
Nlg1	DRSC12539	-0.3	-0.6		
CG9171	DRSC03152	-0.3	-0.4		
FoxL1	DRSC08717	0	-0.1		
Trf2	DRSC18727	-0.5	0.5		
CG15207 (retired record)	DRSC19653	-0.3	-0.7	-0.1	-0.2
CG15221	DRSC19659	-0.3	-0.5		
CG4004	DRSC19791	-0.3	-0.8		
CG4004	DRSC19882	-0.3	-0.6		
mthl2	DRSC10287	-0.4	0.7		
H15	DRSC03339	-0.1	-0.1		
Trp1	DRSC03465	-0.2	-0.2		
veli	DRSC16276	-0.4	-0.3		
CG10486	DRSC09735	-0.2	-0.8		
CG10979	DRSC12153	-0.2	-0.8		
TfIIEbeta	DRSC08701	-0.4	-0.2		
twz	DRSC04069	-0.3	-0.2		
tos	DRSC03624	-0.4	-0.3		
ebd2	DRSC11682	-0.3	-0.3		
babo	DRSC07581	-0.3	-0.1		
CG11342	DRSC08175	-0.2	-0.6		
Rip11	DRSC20000	-0.3	-0.7		
AsnRS-m	DRSC07010	0.1	-0.1		
CG3594	DRSC04393	-0.1	0.2		
pim	DRSC03591	0.1	0.2		
CG14989	DRSC08448	0	-0.3		
obst-A	DRSC20543	-0.1	-0.2		
CG31055	DRSC13832	-0.2	-0.4		
pix	DRSC10533	6.4	5.7		
Adh + Adhr	DRSC01862	-0.3	-0.2		
Adh + Adhr	DRSC01863	-0.2	-0.3		
Ir94f	DRSC13621	-0.1	-0.3		
CG42445	DRSC10858	-0.3	-0.3		
flz	DRSC07109	-0.4	-0.6		
CG8034	DRSC20076	-0.2	1.1		
vvl	DRSC11409	-0.4	-0.1		
rdhB	DRSC16190	-0.3	1.7		
Lcp65Ab2 + Lcp65Ab1	DRSC10340	-0.3	-0.7		
Lcp65Ab2 + Lcp65Ab1	DRSC10343	-0.3	-0.5		
insv	DRSC00579	-0.1	-0.1		
CG14455	DRSC11712	-0.3	0.4		
CG3862	DRSC00631	0	-0.5		
Cpr49Ag	DRSC07203	-0.4	-0.5		
Blos1	DRSC05970	-0.3	-0.1		
Cog6	DRSC06806	-0.4	-0.2		
CG32694	DRSC17844	-0.1	0.9		
CG32694	DRSC17855	-0.1	-0.7		
CG10801	DRSC17761	-0.2	-0.3		
CG42271	DRSC19809	-0.5	-0.7		
Ir40a	DRSC03732	-0.1	-0.2		
Ir40a	DRSC03733	-0.2	0		
klar	DRSC08718	-0.2	-0.3		
CG5149	DRSC02819	-0.3	-0.3		
Rab9Db + Rab9Fa	DRSC18445	-0.3	-1		
sprt	DRSC07323	-0.3	-0.1		
CG30065	DRSC05420	-0.1	-0.2		
tty	DRSC20588	-0.2	-0.2		
CG5770	DRSC06954	-0.1	-0.2		
Upf1	DRSC19667	-0.3	-0.4		
betaNACtes2	DRSC19792	-0.2	-1		
CG3604	DRSC00618	-0.1	0.2		
CG13670	DRSC10029	-0.2	-0.1		

Records above whose target name starts with A or a (4):
target	dsRNA	z-score, replicate 1	z-score, replicate 2	z-score, replicate 3	z-score, replicate 4
asp	DRSC16903	-0.2	-0.2		
AsnRS-m	DRSC07010	0.1	-0.1		
Adh + Adhr	DRSC01862	-0.3	-0.2		
Adh + Adhr	DRSC01863	-0.2	-0.3		

Next reagents follow:
target	dsRNA	z-score, replicate 1	z-score, replicate 2	z-score, replicate 3	z-score, replicate 4
CG31659	DRSC00760	-0.1	-0.5		
CG16894	DRSC06634	-0.4	-0.1	-0.8	-0.3
iPLA2-VIA	DRSC10699	0	0		
CG14855	DRSC14979	-0.3	-0.1		
Cp190	DRSC16607	-0.1	-0.1		
Ank	DRSC17127	-0.2	-0.3		
CLS	DRSC15642	-0.8	-0.8		
CG12126	DRSC06103	-0.2	0.4		
CG1571	DRSC18068	-0.2	-0.2		
CG4151	DRSC18351	-0.3	0.2		
alc	DRSC07062	-0.4	-0.2		
CG6664	DRSC10690	-0.3	-0.7		
Polr2A	DRSC20280	5.2	3.5		
mfr	DRSC10543	-0.3	-0.1		
Suv3	DRSC12335	0	-0.2		
glec	DRSC16958	-0.2	0		
mol	DRSC01431	1.4	-0.6	1.4	0.8
mol	DRSC01912	-0.2	0.9		
mol	DRSC02479	-0.3	-0.4		
CG30015	DRSC05241	0	0		
CG30015	DRSC07027	-0.4	-0.4		
CG30015	DRSC07028	-0.3	-0.4		
Tpi	DRSC16888	-0.3	-0.1		
CG18596	DRSC15355	-0.3	-0.3		
CG5863	DRSC15898	-0.2	0.2		
CG15641	DRSC19677	-0.4	-0.6		
CG7377	DRSC10830	-0.2	0.4		
CG31809	DRSC01561	-0.4	-0.4		
Vang	DRSC07570	-0.3	-0.2		
CG12715	DRSC19492	-0.2	-0.4		
Ugt303B2	DRSC14198	-0.6	-1		
kcc	DRSC04316	-0.3	-0.3		
kcc	DRSC04516	-0.3	-0.2		
wrd	DRSC16337	3	0.7		
wrd	DRSC16344	-1.1	-0.3		
Ir87a	DRSC14836	-0.2	-0.6		
